No constants are given. Whether binding was seen depends on the method and setting. Binding calls can cover weak binding; strength is not graded here.
Assays:
Assay in all cases: two-hybrid
[1] = molecular target: StTGA2.1 (mini-TGA), yeast two-hybrid fusion (potato (Solanum tuberosum L.), cultivar Rywal)
[2] = molecular target: StTGA2.2, yeast two-hybrid bait fusion (potato (Solanum tuberosum L.), cultivar Rywal)
[3] = molecular target: StTGA2.3, yeast two-hybrid bait fusion (potato (Solanum tuberosum L.), cultivar Rywal)

Protein sequences, listed by entry. Tags and fused reporters are not part of them. Lines headed by an entry give the natural chain unless they say otherwise; changes in a name come on top.
UniProt A0A9F1U434: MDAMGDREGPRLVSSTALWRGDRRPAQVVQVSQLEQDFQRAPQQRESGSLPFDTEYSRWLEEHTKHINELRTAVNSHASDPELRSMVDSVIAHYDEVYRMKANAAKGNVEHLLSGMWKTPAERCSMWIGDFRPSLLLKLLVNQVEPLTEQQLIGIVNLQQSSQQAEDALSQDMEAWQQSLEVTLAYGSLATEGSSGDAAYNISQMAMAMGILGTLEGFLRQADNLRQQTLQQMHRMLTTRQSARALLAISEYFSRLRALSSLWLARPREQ

| binding [1] | binding [2] | binding [3] | Substance |
| --- | --- | --- | --- |
| binds | binds | binds | StNPR1, yeast two-hybrid fusion (from UniProt A0A9F1UC91) |
| – | binds | binds | StTGA2.1 (mini-TGA), yeast two-hybrid fusion (from UniProt A0A9F1U434) |
